Some of these results come from one statement about several compounds together.
Test system: Rhipicephalus sanguineus
Assay: contact activity via glass contact, brown dog tick
Settings: rate 10 ppm

| SMILES | Days or Hours to achieve 100% mortality [days] |
| --- | --- |
| CCN/C(=N\Nc1c(Cl)cc(C(F)(F)F)cc1Cl)C1(C)CC1(Cl)Cl (stereo not drawn) [1-2, N-Ethyl-2,2-dichloro-1-methylcyclopropane-carboxamide-2-(2,6-dichloro-α,α,α-trifluoro-p-tolyl)hydrazone] | 3 to 5 |
| CCN/C(=N\Nc1c(Cl)cc(C(F)(F)F)cc1Cl)C(C)(C)C [I-1, N-ethyl-2,2-dimethylpropionamide-2-(2,6-dichloro-α,α,α-trifluoro-p-tolyl)-hydrazone] | 3 to 5 |

Source: US20070259962A1, “Use of N-Arylhydrazine Derivatives for Combating Pests in and on Animals” (priority 2003, published 2007)
